Data taken from publication PMC12208539.
No constants are given. Whether binding was seen depends on the method and setting. Binding seen in cells or lysates may run through a third protein. Some entries that bind do so weakly or less than the wild type.

Chains of the proteins cited; added tags and fusions are not shown.
UniProt P02340: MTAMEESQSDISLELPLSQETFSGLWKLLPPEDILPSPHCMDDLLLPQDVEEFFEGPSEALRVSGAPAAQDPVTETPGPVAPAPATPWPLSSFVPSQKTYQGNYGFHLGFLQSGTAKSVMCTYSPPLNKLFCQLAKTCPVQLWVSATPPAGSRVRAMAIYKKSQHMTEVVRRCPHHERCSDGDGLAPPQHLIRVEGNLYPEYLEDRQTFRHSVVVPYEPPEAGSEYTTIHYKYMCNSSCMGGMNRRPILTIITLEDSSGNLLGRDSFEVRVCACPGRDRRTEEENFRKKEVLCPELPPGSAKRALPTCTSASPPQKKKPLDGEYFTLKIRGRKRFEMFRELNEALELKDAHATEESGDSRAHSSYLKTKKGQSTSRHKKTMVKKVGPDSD

Target: T1, Ppil2, endogenous in mouse erythroid cells (mouse (endogenous in bone marrow Ter119+ cells)) (UniProt Q9D787)
T1 sequence: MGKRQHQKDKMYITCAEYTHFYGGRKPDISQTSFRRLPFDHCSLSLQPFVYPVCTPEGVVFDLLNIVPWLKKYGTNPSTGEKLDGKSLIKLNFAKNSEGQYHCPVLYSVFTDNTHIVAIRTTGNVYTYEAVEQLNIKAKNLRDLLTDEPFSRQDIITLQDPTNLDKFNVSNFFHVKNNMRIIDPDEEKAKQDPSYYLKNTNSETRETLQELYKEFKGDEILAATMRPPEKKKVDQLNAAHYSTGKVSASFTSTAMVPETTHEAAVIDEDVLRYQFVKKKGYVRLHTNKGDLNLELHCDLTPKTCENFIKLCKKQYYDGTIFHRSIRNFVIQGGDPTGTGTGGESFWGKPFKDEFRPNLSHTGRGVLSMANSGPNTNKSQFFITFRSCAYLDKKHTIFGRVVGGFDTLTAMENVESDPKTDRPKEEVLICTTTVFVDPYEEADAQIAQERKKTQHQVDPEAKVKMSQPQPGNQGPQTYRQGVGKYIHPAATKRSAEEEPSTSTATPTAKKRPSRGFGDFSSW
Assay: co-IP; endogenous IP: PPIL2 antibody or IgG with 1 mg lysate of mouse bone marrow Ter119+ cells, 4°C overnight, protein A/G beads; Western blotting

binding: binds
Substance: p53, endogenous in mouse erythroid cells (from UniProt P02340 1-390)
